Experimental data: US4093574A (Eli Lilly and Company, priority 1977, dated 1978)

Test: general procedure: Boc solid-phase peptide synthesis; chloromethylated resin or hydroxymethyl resin

Substance: PEPTIDE1{A.[dS].C.K.N.F.F.[dW].K.T.F.T.S.C}$PEPTIDE1,PEPTIDE1,3:R3-14:R3$$$V2.0
- oxidative folding yield (oxidative folding step, from reduced form): 29.6%
- isolated yield (whole synthesis): 34.0%

HELM strings list residues between dots; [ac] is acetyl, [am] amide, other brackets name non-standard units.
